According to patent publication US20150017115A1 (RAMOT AT TEL AVIV UNIVERSITY, published 2015):
No constants are given. Whether binding was seen depends on the method and setting. Some results given as binding are weak or reduced against the parent protein; the word gives no strength. Blank lines part the entries; values can stand above or below the binder they belong to.

Amino acid sequences for entries named in this document (tags omitted). Residues count along the entry.
UniProt P13591, residues 20-858: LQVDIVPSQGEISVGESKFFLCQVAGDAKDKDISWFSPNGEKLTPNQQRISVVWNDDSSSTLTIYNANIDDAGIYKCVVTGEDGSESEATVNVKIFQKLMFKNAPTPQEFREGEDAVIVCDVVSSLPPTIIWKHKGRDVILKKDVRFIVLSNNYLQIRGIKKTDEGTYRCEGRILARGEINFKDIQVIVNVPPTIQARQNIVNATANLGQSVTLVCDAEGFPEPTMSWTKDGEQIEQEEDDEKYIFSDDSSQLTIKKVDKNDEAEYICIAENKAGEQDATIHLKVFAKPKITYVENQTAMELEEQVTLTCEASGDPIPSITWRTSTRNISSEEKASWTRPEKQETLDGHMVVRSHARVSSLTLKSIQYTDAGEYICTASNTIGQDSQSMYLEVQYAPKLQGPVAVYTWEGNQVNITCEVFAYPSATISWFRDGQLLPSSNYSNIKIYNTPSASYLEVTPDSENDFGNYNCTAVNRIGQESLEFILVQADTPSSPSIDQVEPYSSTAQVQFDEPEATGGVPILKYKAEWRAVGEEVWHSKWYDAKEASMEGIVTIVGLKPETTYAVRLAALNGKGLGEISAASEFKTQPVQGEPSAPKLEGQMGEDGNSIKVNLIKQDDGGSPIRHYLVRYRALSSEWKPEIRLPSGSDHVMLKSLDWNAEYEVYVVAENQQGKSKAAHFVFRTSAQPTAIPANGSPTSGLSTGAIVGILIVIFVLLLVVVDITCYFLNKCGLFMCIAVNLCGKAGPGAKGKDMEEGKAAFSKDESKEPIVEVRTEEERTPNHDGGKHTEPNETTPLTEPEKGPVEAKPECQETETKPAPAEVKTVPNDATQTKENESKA

Tests used:
[1] = biological target: Neural cell adhesion molecule (NCAM, CD56) (human) (UniProt P13591); test: FACS on ES-2 cells
[2] = biological target: Neural cell adhesion molecule (NCAM, CD56) (human) (UniProt P13591); test: FACS on ES2 cells
[3] = biological target: Neural cell adhesion molecule (NCAM, CD56) (human) (UniProt P13591); test: confocal microscopy of Saos-2 cells with fluorescently labeled peptide

binding [1]: binds | binding [2]: binds
B1: NCAM targeting peptide C3 (SEQ ID NO:3), CF-labeled (peptide)
peptide: GASKKPKRNIKA
modifications: N-terminal 5(6)-carboxyfluorescein (CF) label

binding [3]: binds
B2: NCAM-targeting peptide (NTP), fluorescein-labeled (peptide)
peptide: GDDSDEEN
modifications: N-terminal 5(6)-carboxyfluorescein (CF) label; called FITC-labeled in paragraph 576
